According to PubChem BioAssay AID493014 (National Center for Advancing Translational Sciences (NCATS), 2011):
The list shows a part of the results. Shown are side measurements of this screen, not its main read-out; they come without a call. Most of these compounds were active or inconclusive in the main read-out, so they are no random draw. The note in brackets gives the kind of curve behind each potency; many fits are weak.

Assay: qHTS Assay to Find Inhibitors of Chronic Active B-Cell Receptor Signaling
Settings: ABC-DLBCL IkBa-CBG/CBR reporter, luminescence ratio (green luciferase fused to IkBa over red control in TMD8 lymphoma cells), 4 h
In short: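 Concentration-response series (up to 46 uM) were applied to TMD8 dual-reporter cells for 4 h at 37C with doxycycline. Green/red ratio, after filter-overlap correction, defined %Activity; red signal alone was normalised to basal cells and zero luminescence.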

[1] = measured here: CBR red luminescence, cell number
[2] = measured here: IkBa-CBG green luminescence

**Q.** For `Cc1ccc(-n2c(SCC(=O)N3CCN(c4ccccn4)CC3)nnc2N2CCCC2)cc1`, which AC50 [1] is on record?
**A.** 3.26 µM [rising, full curve, poor fit]

**Q.** For `COc1ccc(C(=O)Nc2ccc3c(c2)OCCO3)cc1[N+](=O)[O-]`, which AC50 [1] is on record?
**A.** 0.708 µM [falling, full curve, poor fit]

**Q.** For `O=C(Nc1ccc(NC(=O)c2ccccc2Cl)nc1)c1ccco1`, which AC50 [1] is on record?
**A.** 15.8 µM [falling, partial curve]

**Q.** For `CCOC(=O)c1ccc(NC(=S)NC(=O)COc2ccccc2)cc1`, which AC50 [1] is on record?
**A.** 29.1 µM [rising, single point]

**Q.** With `O=C(N/N=C/c1ccccn1)c1cc(-c2ccc3ccccc3c2)n[nH]1` as the compound, how does the AC50 [1] read?
**A.** 18.4 µM [rising, single point]

**Q.** Which AC50 [1] does the source give for `CCN(CC(=O)Nc1ccc2c(c1)OCCO2)C(=O)c1ccc(Cl)cc1Cl` here?
**A.** 9.2 µM [rising, partial curve, poor fit]

**Q.** Which AC50 [1] does the source give for `C[C@H](CO)N1C[C@H](C)[C@@H](CN(C)C(=O)NC2CCCCC2)Oc2ccc(NS(=O)(=O)c3cccs3)cc2C1=O` here?
**A.** 29.1 µM [rising, single point]

**Q.** Which AC50 [1] does the source give for `Cn1c(=N)n(CC(O)c2ccco2)c2ccccc21` (configuration not stated) here?
**A.** 35.5 µM [falling, partial curve, poor fit]

**Q.** Which AC50 [1] does the source give for `CC(c1ccon1)N(C)C(=O)CCc1nnc(Cc2ccc(-c3ccccc3)cc2)o1` (configuration not stated) here?
**A.** 35.5 µM [falling, single point]

**Q.** For `CN(C)c1ccc(/C=N/NC(=O)c2ccn(C)n2)cc1`, which AC50 [1] is on record?
**A.** 5.62 µM [falling, partial curve]

**Q.** For `c1cncc(-c2nc(NCCCn3ccnc3)c3ccccc3n2)c1`, which AC50 [1] is on record?
**A.** 8.91 µM [falling, partial curve]

**Q.** For `CC/C(=N\NC(=O)c1cc(C)nc2ccccc12)c1ccc(C)s1`, which AC50 [1] is on record?
**A.** 10.3 µM [rising, partial curve]

**Q.** For `CCCOc1cccc(C(=O)NC(=S)Nc2cccc(NC(=O)c3ccccc3Cl)c2)c1`, which AC50 [1] is on record?
**A.** 2.31 µM [falling, full curve, poor fit]

**Q.** Which AC50 [1] does the source give for `CN(CC(=O)Nc1ccccc1C(=O)Nc1ccccc1)C1CCCCC1` here?
**A.** 20.6 µM [rising, single point]

**Q.** For `CC(=C/c1ccccc1)/C=N/NC(=O)c1cccs1`, which AC50 [1] is on record?
**A.** 11.2 µM [falling, partial curve, poor fit]

**Q.** For `O=C(CC1SC(=O)N(c2ccccc2)C1=O)Nc1ccccc1` (configuration not stated), which AC50 [1] is on record?
**A.** 11.2 µM [falling, partial curve, poor fit]

**Q.** Which AC50 [1] does the source give for `Cc1ccc2nc(N(Cc3cccnc3)C(=O)c3cccs3)sc2c1` here?
**A.** 0.891 µM [falling, full curve, poor fit]

**Q.** For `CC(C)N(CC#CC(O)(c1ccccc1)c1ccccc1)C(C)C`, which AC50 [1] is on record?
**A.** 1.26 µM [falling, full curve, poor fit]

**Q.** For `O=C(/C=C/c1cccc([N+](=O)[O-])c1)OCC(=O)c1ccccc1`, which AC50 [1] is on record?
**A.** 10 µM [rising, partial curve, poor fit]

**Q.** Which results are given for `COc1ccc(CN2C(=O)C(C)Nc3ncnc(N4CCOCC4)c32)cc1` (configuration not stated)?
**A.** AC50 [1]: 29.1 µM [rising, single point]; AC50 [2]: 29.1 µM [falling, single point]

**Q.** With `COc1ccc(CNc2ccc([N+](=O)[O-])cc2C)cc1` as the compound, how does the AC50 [1] read?
**A.** 1.78 µM [rising, full curve, poor fit]

**Q.** For `COC(=O)COc1cccc(NC(=O)c2ccc(C)cc2)c1`, which AC50 [1] is on record?
**A.** 20 µM [falling, single point]

**Q.** For `COCCNC(=O)/C(C#N)=C/c1cccc(NC(=O)c2ccccc2Cl)c1`, which AC50 [1] is on record?
**A.** 8.2 µM [falling, partial curve]

**Q.** Which AC50 [1] does the source give for `Cc1occc1C(=O)Nc1ccc2c(c1)OCCO2` here?
**A.** 10 µM [falling, partial curve]

**Q.** With `COc1cc(OC)cc(C(=O)NNC(=O)NC2CCCCC2)c1` as the compound, how does the AC50 [1] read?
**A.** 4.11 µM [falling, partial curve, poor fit]

**Q.** And the AC50 [2]?
**A.** 32.6 µM [falling, partial curve, poor fit]

**Q.** For `Cn1c(N)c(C(=O)COC(=O)CCC2CCCC2)c(=O)n(C)c1=O`, which AC50 [2] is on record?
**A.** 3.98 µM [rising, full curve, poor fit]

**Q.** Which AC50 [1] does the source give for `Cc1ccc2nc3c(cc(S(=O)(=O)c4ccccc4)c(=N)n3Cc3ccco3)c(=O)n2c1` here?
**A.** 25.1 µM [falling, single point]

**Q.** With `CCC(C)(C)NC(=O)C(OC(=O)c1ccco1)c1ccccc1OC` (configuration not stated) as the compound, how does the AC50 [1] read?
**A.** 13 µM [rising, single point]

**Q.** For `COc1ccc2sc(N(CCN(C)C)C(=O)/C=C/c3cccs3)nc2c1`, which AC50 [1] is on record?
**A.** 35.5 µM [falling, single point]

**Q.** For `CCCC[C@@H]1CN=C(N)N1CCc1cc(C(F)(F)F)cc(C(F)(F)F)c1`, which AC50 [1] is on record?
**A.** 11.2 µM [falling, single point]

**Q.** Which AC50 [1] does the source give for `CC(C)C(NC(=O)c1ccc(S(=O)(=O)N2CCOCC2)cc1)c1nc2ccccc2[nH]1` (configuration not stated) here?
**A.** 0.708 µM [rising, partial curve, poor fit]

**Q.** With `O=C1NCCN1Cc1ccc(F)cc1` as the compound, how does the AC50 [1] read?
**A.** 29.1 µM [rising, single point]

**Q.** For `O=c1cc2oc3cc(O)c(O)cc3c(-c3ccccc3O)c-2cc1O`, which AC50 [1] is on record?
**A.** 35.5 µM [rising, partial curve, poor fit]

**Q.** Which AC50 [1] does the source give for `COC(=O)c1ccccc1S(=O)(=O)N1CCC(C(=O)NC2CCCCC2)CC1` here?
**A.** 0.231 µM [rising, full curve, poor fit]

**Q.** For `c1ccc(-c2csc(-c3ccncc3)n2)cc1`, which AC50 [1] is on record?
**A.** 8.91 µM [rising, partial curve]

**Q.** For `COc1ccc2c(c1)c1nc3ccccc3nc1n2CCn1c(=O)oc2ccccc21`, which AC50 [1] is on record?
**A.** 25.9 µM [rising, single point]

**Q.** With `COc1ccc(-c2[nH]ncc2CN(CC2CCC(=O)N2)C(C)C)cc1F` (configuration not stated) as the compound, how does the AC50 [1] read?
**A.** 3.55 µM [falling, single point]

**Q.** For `CCCS(=O)(=O)N1CCN(C2Cc3ccccc3C2)CC1`, which AC50 [1] is on record?
**A.** 35.5 µM [rising, partial curve, poor fit]

**Q.** Which AC50 [1] does the source give for `CC(C)(C)c1ccc(S(=O)(=O)N2CCN(c3ncccn3)CC2)cc1` here?
**A.** 0.1 µM [rising, full curve, poor fit]

**Q.** Which AC50 [1] does the source give for `O=c1[nH]c(CS(=O)(=O)c2ccccc2)nc2ccccc12` here?
**A.** 18.4 µM [falling, partial curve]
